Test results published in the supplement of paper PMC10849652.
The other results are listed elsewhere or left out.

Chains of the proteins cited; added tags and fusions are not shown. Lines headed by an entry give the natural chain unless they say otherwise; changes in a name come on top.
UniProt P14854, whole entry, looked up: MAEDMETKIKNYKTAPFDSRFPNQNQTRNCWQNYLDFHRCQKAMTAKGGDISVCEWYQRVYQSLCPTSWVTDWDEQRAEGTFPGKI
UniProt Q9GZQ3, whole entry, looked up: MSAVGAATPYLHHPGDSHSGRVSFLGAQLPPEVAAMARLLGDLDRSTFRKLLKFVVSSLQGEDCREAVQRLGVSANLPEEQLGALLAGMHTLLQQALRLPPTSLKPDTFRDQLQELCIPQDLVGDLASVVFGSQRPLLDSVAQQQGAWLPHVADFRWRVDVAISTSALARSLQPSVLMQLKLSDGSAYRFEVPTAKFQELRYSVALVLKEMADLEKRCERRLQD
UniProt Q9UIV1, whole entry, looked up: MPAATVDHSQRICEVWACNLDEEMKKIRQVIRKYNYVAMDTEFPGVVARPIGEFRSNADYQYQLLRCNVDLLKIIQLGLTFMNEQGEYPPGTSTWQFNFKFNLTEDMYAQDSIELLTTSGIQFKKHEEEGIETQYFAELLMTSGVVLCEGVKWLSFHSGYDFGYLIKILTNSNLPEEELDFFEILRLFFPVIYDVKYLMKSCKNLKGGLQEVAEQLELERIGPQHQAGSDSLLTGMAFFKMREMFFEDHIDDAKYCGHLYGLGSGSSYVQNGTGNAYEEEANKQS
UniProt Q8NI60: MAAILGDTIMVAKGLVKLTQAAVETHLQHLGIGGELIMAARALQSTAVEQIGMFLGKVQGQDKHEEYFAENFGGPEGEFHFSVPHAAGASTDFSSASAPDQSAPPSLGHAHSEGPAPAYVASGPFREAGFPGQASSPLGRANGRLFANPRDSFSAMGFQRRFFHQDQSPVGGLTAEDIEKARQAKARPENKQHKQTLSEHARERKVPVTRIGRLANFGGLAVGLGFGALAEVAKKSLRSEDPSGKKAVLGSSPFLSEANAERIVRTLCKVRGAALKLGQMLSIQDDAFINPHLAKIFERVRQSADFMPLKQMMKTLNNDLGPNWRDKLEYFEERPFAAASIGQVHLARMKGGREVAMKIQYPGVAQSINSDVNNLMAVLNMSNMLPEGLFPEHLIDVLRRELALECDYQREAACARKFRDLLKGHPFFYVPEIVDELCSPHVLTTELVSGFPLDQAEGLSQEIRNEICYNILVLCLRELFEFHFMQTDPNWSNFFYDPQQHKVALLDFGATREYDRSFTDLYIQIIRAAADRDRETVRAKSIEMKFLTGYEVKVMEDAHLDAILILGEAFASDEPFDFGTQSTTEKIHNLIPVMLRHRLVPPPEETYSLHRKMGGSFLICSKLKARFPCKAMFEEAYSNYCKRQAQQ
UniProt Q9UNS2: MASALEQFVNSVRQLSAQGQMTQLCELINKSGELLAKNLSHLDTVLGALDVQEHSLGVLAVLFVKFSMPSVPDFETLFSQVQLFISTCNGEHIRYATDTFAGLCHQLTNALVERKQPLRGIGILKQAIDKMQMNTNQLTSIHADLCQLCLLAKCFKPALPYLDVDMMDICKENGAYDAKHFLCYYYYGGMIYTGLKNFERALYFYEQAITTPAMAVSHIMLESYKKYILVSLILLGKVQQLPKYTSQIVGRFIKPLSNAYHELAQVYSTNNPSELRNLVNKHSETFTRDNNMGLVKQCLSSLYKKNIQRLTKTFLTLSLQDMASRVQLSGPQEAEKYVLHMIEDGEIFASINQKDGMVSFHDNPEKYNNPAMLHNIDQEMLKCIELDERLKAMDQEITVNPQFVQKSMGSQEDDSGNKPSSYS
UniProt Q9BR76, whole entry, looked up: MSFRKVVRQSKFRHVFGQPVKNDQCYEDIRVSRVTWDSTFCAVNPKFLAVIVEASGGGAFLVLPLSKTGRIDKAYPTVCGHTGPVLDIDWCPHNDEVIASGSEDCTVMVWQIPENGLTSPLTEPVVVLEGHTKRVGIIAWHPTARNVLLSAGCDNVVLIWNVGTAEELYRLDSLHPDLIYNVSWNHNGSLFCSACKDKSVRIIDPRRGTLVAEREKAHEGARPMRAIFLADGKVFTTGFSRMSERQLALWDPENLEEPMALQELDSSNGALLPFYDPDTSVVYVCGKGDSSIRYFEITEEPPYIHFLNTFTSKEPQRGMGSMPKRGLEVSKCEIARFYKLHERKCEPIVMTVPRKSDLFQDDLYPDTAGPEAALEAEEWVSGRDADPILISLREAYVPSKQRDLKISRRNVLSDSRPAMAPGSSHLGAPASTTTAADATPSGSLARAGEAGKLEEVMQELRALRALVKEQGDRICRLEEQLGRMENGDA
UniProt Q14019: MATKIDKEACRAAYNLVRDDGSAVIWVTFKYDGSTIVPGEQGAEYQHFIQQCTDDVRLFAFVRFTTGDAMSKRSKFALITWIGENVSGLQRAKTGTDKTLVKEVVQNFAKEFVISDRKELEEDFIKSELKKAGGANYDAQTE
UniProt Q9BRF8, whole entry, looked up: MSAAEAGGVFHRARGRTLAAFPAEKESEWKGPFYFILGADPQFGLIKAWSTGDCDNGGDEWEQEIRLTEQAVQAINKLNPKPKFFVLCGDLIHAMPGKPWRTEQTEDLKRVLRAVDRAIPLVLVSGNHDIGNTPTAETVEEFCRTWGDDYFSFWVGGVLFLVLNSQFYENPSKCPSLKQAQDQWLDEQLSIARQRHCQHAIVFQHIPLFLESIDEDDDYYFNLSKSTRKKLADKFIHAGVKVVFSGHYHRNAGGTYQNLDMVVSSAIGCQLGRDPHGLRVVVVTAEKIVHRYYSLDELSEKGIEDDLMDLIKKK
UniProt Q9NZN8, whole entry, looked up: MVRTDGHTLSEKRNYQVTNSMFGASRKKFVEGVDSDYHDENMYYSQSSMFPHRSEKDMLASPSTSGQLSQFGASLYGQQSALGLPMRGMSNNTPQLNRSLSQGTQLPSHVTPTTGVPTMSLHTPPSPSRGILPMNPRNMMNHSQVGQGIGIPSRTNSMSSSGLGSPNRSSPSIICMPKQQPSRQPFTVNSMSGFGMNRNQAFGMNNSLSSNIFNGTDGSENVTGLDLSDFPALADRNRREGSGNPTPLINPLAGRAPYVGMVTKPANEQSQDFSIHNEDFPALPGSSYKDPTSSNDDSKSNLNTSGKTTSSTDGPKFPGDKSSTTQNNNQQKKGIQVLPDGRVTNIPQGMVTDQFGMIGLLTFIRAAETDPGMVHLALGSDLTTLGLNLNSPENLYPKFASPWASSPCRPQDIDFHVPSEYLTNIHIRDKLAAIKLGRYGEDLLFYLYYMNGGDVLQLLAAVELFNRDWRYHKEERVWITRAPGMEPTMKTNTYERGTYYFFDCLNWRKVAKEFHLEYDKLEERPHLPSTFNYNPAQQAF
UniProt O95639, whole entry, looked up: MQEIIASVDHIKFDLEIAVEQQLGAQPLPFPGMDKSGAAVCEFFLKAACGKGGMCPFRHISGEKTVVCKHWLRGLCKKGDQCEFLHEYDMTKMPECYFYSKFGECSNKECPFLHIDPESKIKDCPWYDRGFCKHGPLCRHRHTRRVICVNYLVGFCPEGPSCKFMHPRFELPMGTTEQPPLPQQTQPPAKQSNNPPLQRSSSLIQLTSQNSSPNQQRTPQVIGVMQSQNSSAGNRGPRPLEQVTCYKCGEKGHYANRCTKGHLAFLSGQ
UniProt Q86VX2, whole entry, looked up: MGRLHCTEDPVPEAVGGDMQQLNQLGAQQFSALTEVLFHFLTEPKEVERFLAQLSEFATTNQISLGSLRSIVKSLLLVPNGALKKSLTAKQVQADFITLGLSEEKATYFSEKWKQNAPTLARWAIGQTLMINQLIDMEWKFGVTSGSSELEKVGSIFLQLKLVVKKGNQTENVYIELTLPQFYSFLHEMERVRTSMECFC
UniProt P29373: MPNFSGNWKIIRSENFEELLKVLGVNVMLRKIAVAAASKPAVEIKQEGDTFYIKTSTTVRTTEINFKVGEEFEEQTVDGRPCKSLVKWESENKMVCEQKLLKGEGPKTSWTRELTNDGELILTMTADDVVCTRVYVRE
UniProt Q96KP4: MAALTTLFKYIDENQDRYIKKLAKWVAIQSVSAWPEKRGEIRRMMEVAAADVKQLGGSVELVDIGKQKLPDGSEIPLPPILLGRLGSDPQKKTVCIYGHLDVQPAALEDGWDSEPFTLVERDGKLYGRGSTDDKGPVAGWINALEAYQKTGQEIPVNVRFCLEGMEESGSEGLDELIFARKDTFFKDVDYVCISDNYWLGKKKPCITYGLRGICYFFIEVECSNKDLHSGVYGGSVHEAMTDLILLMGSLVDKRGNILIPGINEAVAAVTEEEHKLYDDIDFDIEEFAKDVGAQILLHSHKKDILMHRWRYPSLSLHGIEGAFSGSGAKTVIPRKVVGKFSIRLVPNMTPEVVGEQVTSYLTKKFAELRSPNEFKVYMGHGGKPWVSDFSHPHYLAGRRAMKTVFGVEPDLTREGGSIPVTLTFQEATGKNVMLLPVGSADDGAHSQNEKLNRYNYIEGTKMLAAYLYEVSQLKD
UniProt P35606: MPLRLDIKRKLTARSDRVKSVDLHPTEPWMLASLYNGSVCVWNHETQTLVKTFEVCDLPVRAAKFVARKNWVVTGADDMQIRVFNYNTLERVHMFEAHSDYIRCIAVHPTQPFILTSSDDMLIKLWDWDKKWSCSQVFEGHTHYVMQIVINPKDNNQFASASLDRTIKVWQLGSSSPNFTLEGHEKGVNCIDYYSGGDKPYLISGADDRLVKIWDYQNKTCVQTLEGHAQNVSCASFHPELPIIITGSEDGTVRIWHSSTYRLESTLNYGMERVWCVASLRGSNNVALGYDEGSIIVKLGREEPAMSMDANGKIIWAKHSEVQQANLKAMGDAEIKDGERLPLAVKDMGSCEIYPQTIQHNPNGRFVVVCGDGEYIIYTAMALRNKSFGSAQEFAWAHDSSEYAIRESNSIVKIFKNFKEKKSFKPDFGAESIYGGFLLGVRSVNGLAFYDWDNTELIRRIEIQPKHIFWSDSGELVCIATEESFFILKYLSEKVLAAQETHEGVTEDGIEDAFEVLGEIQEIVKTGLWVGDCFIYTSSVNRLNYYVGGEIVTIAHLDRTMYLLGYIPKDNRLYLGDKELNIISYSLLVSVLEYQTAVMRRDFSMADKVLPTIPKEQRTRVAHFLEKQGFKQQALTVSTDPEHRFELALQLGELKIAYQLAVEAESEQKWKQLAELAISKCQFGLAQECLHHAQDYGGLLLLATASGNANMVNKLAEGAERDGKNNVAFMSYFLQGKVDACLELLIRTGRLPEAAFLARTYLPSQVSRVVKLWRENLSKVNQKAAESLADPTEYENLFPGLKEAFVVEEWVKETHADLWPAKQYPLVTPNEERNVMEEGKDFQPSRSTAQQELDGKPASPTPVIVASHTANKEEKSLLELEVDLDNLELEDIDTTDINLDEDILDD
UniProt P09669, whole entry, looked up: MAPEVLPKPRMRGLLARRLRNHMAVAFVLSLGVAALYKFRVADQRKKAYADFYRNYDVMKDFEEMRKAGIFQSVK
UniProt P15954, whole entry, looked up: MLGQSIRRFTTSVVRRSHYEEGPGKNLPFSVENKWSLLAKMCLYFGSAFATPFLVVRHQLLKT
UniProt Q9NZJ6: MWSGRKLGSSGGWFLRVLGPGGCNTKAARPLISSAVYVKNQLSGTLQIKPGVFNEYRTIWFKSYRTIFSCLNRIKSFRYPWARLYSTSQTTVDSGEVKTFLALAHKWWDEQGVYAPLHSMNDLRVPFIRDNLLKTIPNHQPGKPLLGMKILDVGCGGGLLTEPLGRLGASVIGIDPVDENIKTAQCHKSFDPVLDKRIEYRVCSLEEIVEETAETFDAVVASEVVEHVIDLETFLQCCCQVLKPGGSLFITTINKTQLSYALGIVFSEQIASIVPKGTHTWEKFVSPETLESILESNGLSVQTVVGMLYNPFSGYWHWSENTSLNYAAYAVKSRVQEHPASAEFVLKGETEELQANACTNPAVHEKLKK
UniProt Q9H9Q2: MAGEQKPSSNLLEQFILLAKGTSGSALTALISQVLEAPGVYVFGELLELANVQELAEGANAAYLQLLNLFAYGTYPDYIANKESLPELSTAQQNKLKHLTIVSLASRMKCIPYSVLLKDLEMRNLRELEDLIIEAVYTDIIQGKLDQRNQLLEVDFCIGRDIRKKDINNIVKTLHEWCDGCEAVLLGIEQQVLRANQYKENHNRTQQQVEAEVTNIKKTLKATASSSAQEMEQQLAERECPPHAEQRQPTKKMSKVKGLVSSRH
UniProt Q9Y646: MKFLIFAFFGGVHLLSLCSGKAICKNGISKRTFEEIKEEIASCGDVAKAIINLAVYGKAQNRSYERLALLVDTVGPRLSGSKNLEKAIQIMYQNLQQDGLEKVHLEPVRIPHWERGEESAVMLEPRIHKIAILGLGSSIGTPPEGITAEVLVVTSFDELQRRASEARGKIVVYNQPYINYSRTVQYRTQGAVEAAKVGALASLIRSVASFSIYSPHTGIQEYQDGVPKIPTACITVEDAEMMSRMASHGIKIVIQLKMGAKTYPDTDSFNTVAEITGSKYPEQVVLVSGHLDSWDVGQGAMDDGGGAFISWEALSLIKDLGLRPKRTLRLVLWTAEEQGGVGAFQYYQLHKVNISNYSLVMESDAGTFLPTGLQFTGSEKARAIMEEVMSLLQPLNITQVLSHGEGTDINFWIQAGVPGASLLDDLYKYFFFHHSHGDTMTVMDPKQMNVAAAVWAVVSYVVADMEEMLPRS
UniProt Q9NQ92: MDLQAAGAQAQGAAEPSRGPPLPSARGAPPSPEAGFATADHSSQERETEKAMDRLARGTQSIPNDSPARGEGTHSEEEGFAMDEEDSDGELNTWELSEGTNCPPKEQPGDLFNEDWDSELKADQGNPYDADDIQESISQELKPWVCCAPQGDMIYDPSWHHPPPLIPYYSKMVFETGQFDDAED

Assays:
Assay in all cases: log2 fold change, soluble protein after heating vs DMSO (PISA); higher = thermal stabilisation; K562 lysate, 10 uM; active = over 0.2 and 3.5 SD of the protein, either way, in both replicates (recomputed)
vemurafenib = compound: CCCS(=O)(=O)Nc1ccc(F)c(C(=O)c2c[nH]c3ncc(-c4ccc(Cl)cc4)cc23)c1F [vemurafenib]
In short: (§1)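 Following dounce homogenisation of K562 pellets in PBS pH 7.4 with 1 mM MgCl2, crude extract at 1 mg/mL protein was incubated for 30 min with 10 μM compound. Aliquots were then heated for 3 min over 48°C-58°C and pooled, NP-40 was added to 0.5% at 4°C, and soluble protein was recovered as the supernatant at 21,000xg for 90 min. Channel-sum-equalised TMTpro 16plex LC-MS/MS quantified this protein. Each value, from duplicates, is a log-two fold change in thermal stability relative to solvent controls.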

[1] = compound: CCCS(=O)(=O)Nc1ccc(F)c(C(=O)c2c[nH]c3ncc(Cl)cc23)c1F
In short: as §1

barasertib = compound: CCN(CCCOc1ccc2c(Nc3cc(CC(=O)Nc4cccc(F)c4)[nH]n3)ncnc2c1)CCOP(=O)(O)O [barasertib]
In short: as §1

[2] = compound: CC[C@@H]1C(=O)N(C)c2cnc(Nc3ccc(C(=O)NC4CCN(C)CC4)cc3OC)nc2N1C1CCCC1
In short: as §1

volasertib = compound: CC[C@@H]1C(=O)N(C)c2cnc(Nc3ccc(C(=O)N[C@H]4CC[C@H](N5CCN(CC6CC6)CC5)CC4)cc3OC)nc2N1C(C)C [volasertib]
In short: as §1

[3] = compound: CCn1c(C(=O)N(C2CC2)C2CC2)cc2c3c(ncn3C)c(Nc3cc(C)n(C)n3)nc21
In short: as §1

[4] = compound: CCn1cc(-c2ccnc3[nH]c(-c4cccc(CN(C)C)c4)cc23)c(-c2ccc(NC(=O)N(C)C)cc2)n1
In short: as §1

[5] = compound: CN1CCC(CNc2ccc3ncc(-c4cccc(OC(F)(F)F)c4)n3n2)CC1
In short: as §1

saracatinib = compound: CN1CCN(CCOc2cc(OC3CCOCC3)c3c(Nc4c(Cl)ccc5c4OCO5)ncnc3c2)CC1 [saracatinib]
In short: as §1

sotrastaurin = compound: CN1CCN(c2nc(C3=C(c4c[nH]c5ccccc45)C(=O)NC3=O)c3ccccc3n2)CC1 [sotrastaurin]
In short: as §1

Target | log2 fold change (vemurafenib) | log2 fold change [1] | log2 fold change (barasertib) | log2 fold change [2] | log2 fold change (volasertib) | log2 fold change [3] | log2 fold change [4] | log2 fold change [5] | log2 fold change (saracatinib) | log2 fold change (sotrastaurin)
CORO2A (UniProt Q92828) | inactive: -0.019 | inactive: 0.02 | inactive: 0.029 | inactive: 0.002 | inactive: -0.022 | inactive: 0 | inactive: 0.018 | inactive: -0.164 | inactive: -0.015 | inactive: 0.011
COX6B1 (UniProt P14854) | inactive: 0 | inactive: -0.022 | inactive: 0.121 | inactive: -0.009 | inactive: 0.083 | inactive: -0.029 | inactive: 0.079 | inactive: -0.094 | inactive: -0.012 | inactive: 0.029
CRACR2A isoform 2 (UniProt Q9BSW2) | inactive: -0.106 | inactive: -0.057 | inactive: -0.105 | inactive: 0.053 | inactive: -0.062 | inactive: 0.005 | inactive: 0.008 | inactive: -0.029 | inactive: 0.017 | inactive: 0.059
COMMD5 (UniProt Q9GZQ3) | inactive: 0.02 | inactive: -0.003 | inactive: 0.154 | inactive: -0.268 | inactive: 0.011 | inactive: 0.008 | inactive: -0.133 | inactive: 0.021 | inactive: 0.027 | inactive: 0.01
CNOT7 (UniProt Q9UIV1) | inactive: -0.052 | inactive: 0.021 | inactive: -0.031 | inactive: 0.004 | inactive: -0.012 | inactive: 0.043 | inactive: -0.034 | inactive: -0.007 | inactive: 0.077 | inactive: -0.032
COQ8A (UniProt Q8NI60) | inactive: 0.036 | inactive: -0.009 | inactive: 0.134 | inactive: 0.026 | inactive: -0.026 | inactive: -0.029 | inactive: -0.214 | active: 0.573 | active: 0.697 | inactive: 0.016
COPS3 (UniProt Q9UNS2) | inactive: 0.025 | inactive: 0.009 | inactive: 0.008 | inactive: 0.054 | inactive: 0.019 | inactive: -0.044 | inactive: -0.039 | inactive: 0.07 | inactive: -0.003 | inactive: -0.012
CORO1B (UniProt Q9BR76) | inactive: 0.002 | inactive: 0.016 | inactive: 0.009 | inactive: -0.016 | inactive: -0.009 | inactive: -0.009 | inactive: -0.054 | inactive: 0.032 | inactive: 0.009 | inactive: 0.003
COG3 (UniProt Q96JB2) | inactive: 0.004 | inactive: 0.012 | inactive: 0.041 | inactive: -0.056 | inactive: -0.071 | inactive: 0.042 | inactive: -0.038 | inactive: 0.012 | inactive: 0.046 | inactive: 0.008
COTL1 (UniProt Q14019) | inactive: -0.002 | inactive: -0.017 | inactive: -0.068 | inactive: 0.019 | inactive: 0.02 | inactive: 0.027 | active: 0.37 | inactive: -0.076 | inactive: -0.019 | inactive: -0.045
CPPED1 (UniProt Q9BRF8) | inactive: -0.021 | inactive: -0.022 | inactive: -0.032 | inactive: -0.009 | inactive: 0.032 | inactive: -0.029 | inactive: -0.131 | inactive: 0.133 | inactive: 0.028 | inactive: 0.046
CNOT1 (UniProt A5YKK6) | inactive: -0.007 | inactive: 0.008 | inactive: 0.029 | inactive: -0.033 | inactive: -0.03 | inactive: 0.006 | inactive: -0.047 | inactive: 0.037 | inactive: 0.003 | inactive: 0.016
COL15A1 (UniProt P39059) | inactive: -0.074 | inactive: 0.08 | inactive: -0.022 | inactive: 0.106 | inactive: -0.003 | inactive: -0.023 | inactive: -0.031 | inactive: 0.078 | inactive: -0.034 | inactive: -0.029
CNOT2 (UniProt Q9NZN8) | inactive: 0.037 | inactive: -0.026 | inactive: 0.065 | inactive: 0.029 | inactive: -0.048 | inactive: 0.039 | inactive: 0.17 | inactive: -0.059 | inactive: -0.013 | inactive: 0.002
CPSF4 (UniProt O95639) | inactive: -0.02 | inactive: -0.017 | inactive: 0.064 | inactive: 0.014 | inactive: 0.019 | inactive: -0.001 | inactive: -0.059 | inactive: 0 | inactive: 0.03 | inactive: -0.006
COMMD7 (UniProt Q86VX2) | inactive: -0.006 | inactive: 0.019 | inactive: 0.001 | inactive: 0.04 | inactive: -0.036 | inactive: -0.021 | inactive: -0.205 | inactive: 0.107 | inactive: -0.035 | inactive: -0.011
CRABP2 (UniProt P29373) | inactive: 0.128 | inactive: 0.007 | inactive: 0.528 | inactive: -0.139 | inactive: 0.026 | inactive: -0.005 | inactive: 0.089 | inactive: -0.003 | inactive: 0.092 | inactive: 0.001
CNDP2 (UniProt Q96KP4) | inactive: 0.01 | inactive: 0.023 | inactive: -0.01 | inactive: 0.11 | inactive: 0.041 | inactive: -0.032 | active: -0.343 | active: 0.278 | inactive: 0.01 | inactive: 0.013
CORO1C isoform 3 (UniProt Q9ULV4) | inactive: -0.014 | inactive: -0.01 | inactive: -0.035 | inactive: 0.024 | inactive: 0.008 | inactive: -0.016 | inactive: -0.006 | inactive: 0.016 | inactive: -0.009 | inactive: 0.008
COPB2 (UniProt P35606) | inactive: -0.007 | inactive: 0.022 | inactive: 0.001 | inactive: -0.006 | inactive: 0.001 | inactive: -0.008 | inactive: -0.062 | inactive: 0.037 | inactive: -0.007 | inactive: -0.01
COX6C (UniProt P09669) | inactive: 0 | inactive: 0 | inactive: 0 | inactive: 0.02 | inactive: 0.032 | inactive: 0.034 | inactive: -0.1 | inactive: -0.005 | inactive: 0.009 | inactive: -0.038
COX7C (UniProt P15954) | inactive: 0.02 | inactive: -0.006 | inactive: -0.035 | inactive: 0.206 | inactive: -0.017 | inactive: -0.05 | inactive: -0.03 | inactive: -0.106 | inactive: 0.009 | inactive: -0.052
COQ3 (UniProt Q9NZJ6) | inactive: 0.016 | inactive: 0.006 | inactive: -0.029 | inactive: 0.005 | inactive: -0.023 | inactive: -0.036 | inactive: -0.064 | inactive: 0.031 |  | 
CPEB4 (UniProt Q17RY0) | inactive: -0.01 | inactive: 0.016 | inactive: 0.002 | inactive: 0.072 | inactive: -0.037 | inactive: 0.26 | inactive: -0.068 | inactive: -0.041 | inactive: 0.078 | 
COPS7B (UniProt Q9H9Q2) | inactive: 0.013 | inactive: -0.01 | inactive: -0.044 | inactive: 0.272 | inactive: 0.01 | inactive: -0.002 | inactive: 0.188 | inactive: -0.041 | inactive: -0.03 | inactive: 0.07
CPQ (UniProt Q9Y646) | inactive: -0.006 | inactive: 0.004 | inactive: -0.027 | inactive: 0.061 | inactive: 0.03 | inactive: -0.031 | inactive: 0.026 | inactive: -0.005 | inactive: 0.014 | inactive: -0.02
COPRS (UniProt Q9NQ92) | inactive: -0.005 | inactive: -0.007 | inactive: 0.1 | inactive: 0.037 | inactive: 0.048 | inactive: -0.149 | inactive: -0.333 | inactive: 0.167 | inactive: 0.026 | inactive: 0.018
COPS4 (UniProt Q9BT78) | inactive: -0.047 | inactive: 0 | inactive: 0.152 | inactive: -0.006 | inactive: 0.01 | inactive: 0.024 | inactive: 0.008 | inactive: -0.029 | inactive: -0.002 | inactive: -0.018
CPT2 (UniProt P23786) | inactive: 0.12 | inactive: 0.014 | inactive: 0.027 | inactive: -0.024 | inactive: 0.207 | inactive: 0 | inactive: 0.12 | inactive: -0.037 | inactive: -0.082 | inactive: 0.024
COG4 (UniProt Q9H9E3) | inactive: 0.018 | inactive: 0.047 | inactive: 0.085 | inactive: -0.048 | inactive: -0.088 | inactive: 0.024 | inactive: 0.005 | inactive: -0.125 | inactive: 0.055 | inactive: 0.05

Rewritten as a markdown table: entries from further up

| Target | log2 fold change (vemurafenib) | log2 fold change [1] | log2 fold change (barasertib) | log2 fold change [2] | log2 fold change (volasertib) | log2 fold change [3] | log2 fold change [4] | log2 fold change [5] | log2 fold change (saracatinib) | log2 fold change (sotrastaurin) |
| --- | --- | --- | --- | --- | --- | --- | --- | --- | --- | --- |
| CORO1B (UniProt Q9BR76) | inactive: 0.002 | inactive: 0.016 | inactive: 0.009 | inactive: -0.016 | inactive: -0.009 | inactive: -0.009 | inactive: -0.054 | inactive: 0.032 | inactive: 0.009 | inactive: 0.003 |
| COG3 (UniProt Q96JB2) | inactive: 0.004 | inactive: 0.012 | inactive: 0.041 | inactive: -0.056 | inactive: -0.071 | inactive: 0.042 | inactive: -0.038 | inactive: 0.012 | inactive: 0.046 | inactive: 0.008 |
